Data as given in PubChem BioAssay AID485353 (National Center for Advancing Translational Sciences (NCATS), 2010).
Hit rate of the full screen: of about 330,000 compounds, about 610 (0.18%) were called active. Inconclusive results, whose numbers are uncertain, are shown with a selection of clear calls. Calls come from the whole dose curve. A potency beside an inconclusive call is a rough fit, not a confirmed value.

test: qHTS of Yeast-based Assay for SARS-CoV PLP; note: nearly all actives have a fitted effect of over 55% in size; details: S. cerevisiae expressing SARS-CoV PLpro; Potency: growth rescue; series mostly up to 32.9 µM
Potency is the fitted concentration of half-maximal effect.

Structure (SMILES)	Potency
CCn1c(C)c(C)c2cc(C(=O)NCCCN3CCOCC3)ccc21	inconclusive: 2.51 µM [activator, full curve, poor fit]
O=C(Nc1ccc(Cl)cc1)N(CCCN1CCOCC1)Cc1cccs1	inconclusive: 20 µM [activator, single point]
Cc1cc(Cl)cc2sc(NC(=O)c3ccco3)nc12	inactive
COc1ccccc1NC(=O)CN1C(=O)CC(C)S(=O)(=O)c2ccccc21 (configuration not stated)	inconclusive: 0.355 µM [activator, full curve]
Cc1nc([N+](=O)[O-])cn1-c1ccc(N)cc1	inactive
COc1ccc(OC)c(NC(=O)CC(Cc2ccccc2OC)C(=O)O)c1 (configuration not stated)	inconclusive: 4.47 µM [activator, single point]
CCSc1nnc(SCC(=O)c2c(N)n(C)c(=O)n(C)c2=O)s1	inactive
O=C(Cn1nc(C(=O)O)c2ccccc2c1=O)Nc1cc(Cl)cc(Cl)c1	inactive
Cc1ccccc1NC(=O)CSC1=NCCN1	inconclusive: 10 µM [activator, partial curve]
Cn1cnnc1SCc1ccc(C(=O)n2ncc(C#N)c2N)cc1	inconclusive: 20 µM [activator, single point]
O=C(COC(=O)C1=NNC(=O)CC1)NCCc1ccccc1	inconclusive: 3.16 µM [activator, single point]
COc1ccc(S(=O)(=O)N2CCCCC2)cc1NS(=O)(=O)c1ccccc1F	inactive
Cn1c(SCc2nc(-c3ccc(Cl)cc3)no2)nnc1-c1ccco1	inconclusive: 4.47 µM [activator, single point]
CC(C)n1c(SCC(=O)Nc2nncs2)nnc1-c1ccco1	inconclusive: 22.4 µM [activator, single point]
Cc1ccc(NC(=O)CN2CCC(NC(=O)Cc3ccccc3)CC2)cc1C	inconclusive: 3.16 µM [activator, partial curve]
O=C(NN1CCCCC1)c1cccc2ccccc12	inactive
CCN(CC)c1ccc(/C=N/NC(=O)CNC(=O)C2COc3ccccc3O2)c(O)c1 (configuration not stated)	inconclusive: 7.08 µM [activator, partial curve, poor fit]
O=C(O)c1sc2cc(C(F)(F)F)cnc2c1-c1ccccc1	inactive
Cc1ccccc1C(=O)NC(=S)Nc1sc2c(c1C#N)CCC(C)C2 (configuration not stated)	inactive
CC1CC(C)CN(S(=O)(=O)c2cc3c4c(c2)C(C)C(=O)N4CCC3)C1 (configuration not stated)	inconclusive: 3.98 µM [activator, single point]
CN(Cc1ccccc1)C(=O)c1c[nH]c2ccc(S(=O)(=O)N3CCOCC3)cc2c1=O	inconclusive: 20 µM [activator, single point]
COc1ccc(S(=O)(=O)N2CCN(Cc3ccc(Cl)cc3)CC2)cc1	inactive
O=C1CCCN1CCCNc1ccc2nnc(CCC(=O)N3CCN(c4ccc(F)cc4)CC3)n2n1	inconclusive: 20 µM [activator, single point]
Cc1c(C(=O)N2CCN(c3ccccc3)CC2)oc2c(F)cccc12	inactive

Looked up above:
O=C(O)c1sc2cc(C(F)(F)F)cnc2c1-c1ccccc1 – Potency: inactive
Cc1ccccc1C(=O)NC(=S)Nc1sc2c(c1C#N)CCC(C)C2 (configuration not stated) – Potency: inactive

(more compounds)

Structure (SMILES)	Potency
COc1ccc(NC(=O)Cn2nnc(C(=O)NCc3ccc(C)cc3)c2N)cc1OC	inconclusive: 0.0251 µM [activator, full curve, poor fit]
CC(=O)N(c1ccccc1)c1nc(C)cc(C)c1C#N	inactive
O=C(COc1ccc(Cl)cc1)Nc1cnn(Cc2c(Cl)cccc2Cl)c1	inactive
CCc1cc(Br)ccc1NC(=O)C1CCCO1 (configuration not stated)	inconclusive: 11.2 µM [activator, partial curve]
CC(C)NC(=S)N/N=C/c1sc(N2CCCCC2)nc1-c1cccs1	inconclusive: 5.62 µM [activator, partial curve]
Nc1nonc1C(=O)NCCNC(=O)c1ccc(Cl)cc1	inactive
S=C1NC(c2ccccc2)=NCN1c1ccc(Br)cc1	inconclusive: 4.47 µM [activator, partial curve]
Cn1c(SCC(=O)N2CCCC2)nc2ccccc21	inactive
O=C(c1ccc(=O)[nH]c1)N(Cc1cccs1)C1(C(=O)NC2CCCC2)CCCCC1	inconclusive: 17.8 µM [activator, partial curve]
COc1cc(-c2nnc(SCc3cc(=O)oc4cc(O)c(O)cc34)o2)cc(OC)c1OC	active: 6.31 µM
COc1ccc(N2CC(C(=O)N3CCCC(C)C3)CC2=O)cc1 (configuration not stated)	inactive
CCOc1ccc(Cn2c3ccc(OC)cc3c3nc4ccccc4nc32)cc1OC	inconclusive: 22.4 µM [activator, partial curve, poor fit]
Cc1[nH]c(C)c(S(=O)(=O)NCc2ccc(N(C)C)cc2)c1C(=O)N1CCCC1	inconclusive: 3.16 µM [activator, single point]
CCN(CC)c1ccc(S(=O)(=O)N2CCOCC2)cc1NC(=O)COC(=O)COc1ccccc1C	inconclusive: 17.8 µM [activator, single point]
CCN(CC)S(=O)(=O)c1ccc(NC(=O)c2c(-c3ccccc3)noc2C)cc1	inconclusive: 0.316 µM [activator, full curve, poor fit]
COc1ccc(-n2c(N3CCN(C)CC3)nc3sc4c(c3c2=O)CCCCC4)cc1	inactive
O=C(c1ccc([N+](=O)[O-])cc1)N1CCc2ccccc2C1	inconclusive: 5.01 µM [activator, partial curve]
CN(C)Cc1ccc(F)cc1Sc1cc(Cl)ccc1Cl	inconclusive: 20 µM [activator, single point]
Cc1ccc(NS(=O)(=O)c2ccc3oc(=O)ccc3c2)cc1Cl	inconclusive: 20 µM [activator, single point]
Cc1csc(NC(=O)CSc2ccc([N+](=O)[O-])cn2)n1	inactive
Cc1ccc(-c2ccc(SCC(=O)c3ccccc3)nn2)cc1	inconclusive: 0.316 µM [activator, full curve, poor fit]
CN(C)Cc1c(O)ccc2c(=O)c(-c3ccc(Cl)cc3)coc12	inconclusive: 0.891 µM [activator, full curve, poor fit]
Cc1ccc(N=C2NC(=O)/C(=C\c3cccs3)S2)cc1C	inconclusive: 20 µM [activator, single point]
CCCn1c(SCC(=O)Nc2cccc(C(=O)OC)c2)nnc1-c1cccnc1	inactive

Gathered by group, the compounds so far with bromine
Structure (SMILES)	Potency
CCc1cc(Br)ccc1NC(=O)C1CCCO1 (configuration not stated)	inconclusive: 11.2 µM [activator, partial curve]
S=C1NC(c2ccccc2)=NCN1c1ccc(Br)cc1	inconclusive: 4.47 µM [activator, partial curve]

Next part:

Structure (SMILES)	Potency
CCN(CC)CCCNC(=O)c1nn2c(C(F)(F)F)cc(-c3ccccc3)nc2c1Cl	inactive
Cc1ccc(CN2CCN(/N=C/c3sccc3C)CC2)c(C)c1	active: 11.2 µM
CC1(C)Cc2ccccc2-c2nnc(SCC(=O)N3CCN(c4ccccc4)CC3)n21	inactive
CC(=O)c1ccc(OCC(O)CN2CCN(Cc3ccc4c(c3)OCO4)CC2)cc1 (configuration not stated)	inactive
CC[C@H](C)[C@@H](C(=O)N1CCCC1c1nccs1)N(C)C(=O)[C@H](CC(C)C)N(C)C(=O)[C@H](Cc1ccc(OC)cc1)N(C)C(=O)/C=C(\C)OC (some centres not stated)	inconclusive: 4.47 µM [activator, single point]
C#CCOCCOCCOCCNc1nc(N2CCN(C(=O)C(Cc3ccc(O)cc3)n3cc(C(N)C(C)CC)nn3)CC2)nc(N2CCN(C(=O)C(Cc3ccc(O)cc3)n3cc(C(N)C(C)CC)nn3)CC2)n1 (configuration not stated)	inactive
Cc1ccc(-c2ccc(=O)n(CC(=O)NCc3ccco3)n2)cc1	inconclusive: 22.4 µM [activator, single point]
O=C(NC1CCC(O)CC1)c1ccc(-c2ccc(Cl)cc2)o1 (configuration not stated)	inactive
Cc1ccccc1-n1c(=O)/c(=C\c2ccco2)s/c1=C(/C#N)C(=O)Nc1ccccc1	inconclusive: 20 µM [activator, single point]
Cc1ccc(-c2nc3c(c(=O)c4ccccc4n3C)c(=O)n2-c2ccc(F)cc2)cc1	inactive
COC(=O)Sc1nc(N2CCOCC2)c2c(c1C#N)CC(C)(C)OC2	active: 10 µM
CC1CN(c2ncnc3c2c(-c2ccccc2)cn3-c2ccc(F)cc2)CC(C)O1 (configuration not stated)	inactive
COc1cc2c3c(c1)/C(=C1/SC(NC(C)=O)=NC1=O)C(=O)N3C(C)(C)C=C2C	inconclusive: 2.51 µM [activator, single point]
Cc1c(NC(=O)CN2C(=O)c3cccc4cccc2c34)c(=O)n(-c2ccccc2)n1C	inconclusive: 11.2 µM [activator, partial curve]
CCOCCOC(=O)C1=C(C)NC(=O)NC1c1ccc2c(c1)OCO2 (configuration not stated)	inconclusive: 2 µM [activator, full curve]
Cc1oc(-c2ccccc2F)nc1CS(=O)CC(=O)NCc1ccccc1 (configuration not stated)	inconclusive: 3.98 µM [activator, full curve]
Cc1cc(C)c(NC(=O)COC(=O)c2cc([N+](=O)[O-])ccc2N2CCOCC2)c(C)c1	inactive
CC1=C(C)CC(C(=O)NNC(=O)c2ccccc2O)C(C(=O)O)C1 (configuration not stated)	inconclusive: 11.2 µM [activator, partial curve]
COc1ccc(CNC(=S)Nc2cccc(C)c2C)cc1	inconclusive: 20 µM [activator, single point]
Cc1ccc(S(=O)(=O)N2CCN(c3ccc4nnc(-c5ccccc5)n4n3)CC2)cc1	inactive
Cn1c(=O)oc2cc(S(=O)(=O)CCC(=O)Nc3ccccc3)ccc21	inactive
CC(=O)N1CCN(C(=O)COC(=O)COc2c(C)cc(C)cc2C)CC1	inactive
COc1ccccc1C(=O)Nc1nnc(S(=O)(=O)N(C)Cc2ccccc2)s1	inconclusive: 4.47 µM [activator, single point]
COc1cccc(CN(C)C(=O)c2cc(COc3ccc(-n4cncn4)cc3)on2)c1	inconclusive: 3.98 µM [activator, single point]
